In article PMC2859380:
No constants are given. Whether binding was seen depends on the method and setting. Binding seen in cells or lysates may run through a third protein. A result given as binding can be weak or reduced; the word gives no strength. Values belong to the substance of their own block, whether it stands above or below them.

Chains of the proteins cited; added tags and fusions are not shown. Lines headed by an entry give the natural chain unless they say otherwise; changes in a name come on top.
UniProt Q9W087: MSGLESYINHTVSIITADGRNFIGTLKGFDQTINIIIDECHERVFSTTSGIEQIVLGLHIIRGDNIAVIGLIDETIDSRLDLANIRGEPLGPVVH
UniProt Q9VRT7: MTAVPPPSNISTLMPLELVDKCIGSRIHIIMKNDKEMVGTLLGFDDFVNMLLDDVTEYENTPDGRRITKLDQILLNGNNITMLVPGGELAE
UniProt Q9VKW8: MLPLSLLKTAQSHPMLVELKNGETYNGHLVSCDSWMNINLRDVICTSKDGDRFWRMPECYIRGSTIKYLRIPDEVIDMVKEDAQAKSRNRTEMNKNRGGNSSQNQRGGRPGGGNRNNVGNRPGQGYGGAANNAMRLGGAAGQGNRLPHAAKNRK
UniProt Q9VX15: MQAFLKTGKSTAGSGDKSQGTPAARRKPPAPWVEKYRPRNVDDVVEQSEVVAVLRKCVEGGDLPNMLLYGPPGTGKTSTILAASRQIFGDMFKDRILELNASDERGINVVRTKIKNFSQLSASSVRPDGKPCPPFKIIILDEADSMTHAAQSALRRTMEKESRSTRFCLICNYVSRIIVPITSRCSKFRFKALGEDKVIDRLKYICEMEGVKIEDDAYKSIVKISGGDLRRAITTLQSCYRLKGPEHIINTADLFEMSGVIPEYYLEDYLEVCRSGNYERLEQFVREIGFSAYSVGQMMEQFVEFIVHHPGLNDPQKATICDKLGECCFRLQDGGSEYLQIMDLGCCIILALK
UniProt Q9U9Q1: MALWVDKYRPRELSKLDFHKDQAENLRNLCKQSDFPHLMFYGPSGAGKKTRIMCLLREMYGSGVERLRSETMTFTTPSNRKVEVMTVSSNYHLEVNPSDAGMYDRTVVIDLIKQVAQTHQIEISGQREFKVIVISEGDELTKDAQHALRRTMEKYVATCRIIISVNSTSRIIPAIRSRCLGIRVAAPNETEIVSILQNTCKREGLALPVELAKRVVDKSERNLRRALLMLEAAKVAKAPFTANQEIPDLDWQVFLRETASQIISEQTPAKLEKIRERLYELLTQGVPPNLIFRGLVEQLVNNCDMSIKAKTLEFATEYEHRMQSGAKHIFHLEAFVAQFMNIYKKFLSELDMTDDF
UniProt Q9W2P5: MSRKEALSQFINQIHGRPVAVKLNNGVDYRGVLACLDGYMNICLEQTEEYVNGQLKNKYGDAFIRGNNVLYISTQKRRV
UniProt Q9VK69: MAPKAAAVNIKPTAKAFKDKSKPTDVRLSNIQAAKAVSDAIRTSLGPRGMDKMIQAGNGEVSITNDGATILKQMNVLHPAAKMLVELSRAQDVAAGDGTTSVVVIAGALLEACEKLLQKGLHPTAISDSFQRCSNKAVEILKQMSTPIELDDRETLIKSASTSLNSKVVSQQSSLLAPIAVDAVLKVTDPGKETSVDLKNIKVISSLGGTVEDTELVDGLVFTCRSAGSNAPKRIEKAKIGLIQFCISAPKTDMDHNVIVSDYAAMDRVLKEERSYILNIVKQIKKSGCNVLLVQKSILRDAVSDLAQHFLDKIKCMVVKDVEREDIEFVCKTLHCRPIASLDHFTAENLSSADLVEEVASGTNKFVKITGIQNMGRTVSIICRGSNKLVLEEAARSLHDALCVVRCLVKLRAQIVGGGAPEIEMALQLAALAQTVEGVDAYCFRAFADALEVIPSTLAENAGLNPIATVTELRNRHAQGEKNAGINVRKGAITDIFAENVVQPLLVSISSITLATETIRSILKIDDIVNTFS
UniProt P53034: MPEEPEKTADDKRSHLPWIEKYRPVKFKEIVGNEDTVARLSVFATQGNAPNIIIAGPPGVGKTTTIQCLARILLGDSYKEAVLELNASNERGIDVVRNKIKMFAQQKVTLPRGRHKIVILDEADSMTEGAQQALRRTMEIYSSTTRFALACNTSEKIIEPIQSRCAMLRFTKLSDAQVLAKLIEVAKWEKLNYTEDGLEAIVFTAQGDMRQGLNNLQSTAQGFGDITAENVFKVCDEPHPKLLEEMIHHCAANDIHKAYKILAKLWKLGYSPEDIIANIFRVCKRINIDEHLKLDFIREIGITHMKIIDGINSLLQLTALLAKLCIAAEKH
UniProt Q9VTW6: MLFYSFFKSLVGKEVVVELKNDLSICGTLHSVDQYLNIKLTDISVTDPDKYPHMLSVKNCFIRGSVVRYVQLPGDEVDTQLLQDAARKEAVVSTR
UniProt Q9VJI7: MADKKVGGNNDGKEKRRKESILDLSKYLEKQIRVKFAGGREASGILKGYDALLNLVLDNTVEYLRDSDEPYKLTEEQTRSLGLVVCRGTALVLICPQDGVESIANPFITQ
UniProt Q8IP97: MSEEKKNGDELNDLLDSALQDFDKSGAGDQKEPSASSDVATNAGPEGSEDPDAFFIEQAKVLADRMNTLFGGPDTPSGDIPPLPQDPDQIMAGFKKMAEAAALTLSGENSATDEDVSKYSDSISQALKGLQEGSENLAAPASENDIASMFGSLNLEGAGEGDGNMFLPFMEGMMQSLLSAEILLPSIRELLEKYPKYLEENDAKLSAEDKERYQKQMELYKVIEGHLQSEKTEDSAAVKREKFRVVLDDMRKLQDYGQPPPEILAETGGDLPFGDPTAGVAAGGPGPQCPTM

Legend:
Assay in all cases: co-IP; pairs tagged with FLAG or HA, co-expressed in Kc167 cells; lysate in radioimmunoprecipitation assay buffer (50 mM Tris pH 7.4, 150 mM NaCl, 0.1% SDS, 0.5% sodium deoxycholate, 1% NP40); immunoprecipitated with anti-FLAG, membranes probed with anti-HA, stripped, probed with anti-FLAG
[1] = molecular target: CG2021 (Drosophila melanogaster) (UniProt Q9W087)
[2] = molecular target: CG6610 (Drosophila melanogaster) (UniProt Q9VRT7)
[3] = molecular target: CG17768 (Drosophila melanogaster) (UniProt Q9VKW8)
[4] = molecular target: T1, spn-A (Drosophila melanogaster) (UniProt Q27297)
T1 sequence: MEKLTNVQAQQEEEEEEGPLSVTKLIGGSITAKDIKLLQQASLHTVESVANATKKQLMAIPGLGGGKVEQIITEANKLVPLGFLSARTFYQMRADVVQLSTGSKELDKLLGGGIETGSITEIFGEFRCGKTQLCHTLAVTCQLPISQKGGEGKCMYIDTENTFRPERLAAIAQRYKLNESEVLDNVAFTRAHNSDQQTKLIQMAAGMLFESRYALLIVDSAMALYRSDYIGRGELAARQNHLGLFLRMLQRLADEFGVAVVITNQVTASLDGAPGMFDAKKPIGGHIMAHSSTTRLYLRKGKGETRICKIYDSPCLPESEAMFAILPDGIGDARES

[5] = molecular target: CG8142 (Drosophila melanogaster) (UniProt Q9VX15)
[6] = molecular target: RfC38 (Drosophila melanogaster) (UniProt Q9U9Q1)
[7] = molecular target: CG9344 (Drosophila melanogaster) (UniProt Q9W2P5)
[8] = molecular target: T2, SmD3 (Drosophila melanogaster) (UniProt O44437)
T2 sequence: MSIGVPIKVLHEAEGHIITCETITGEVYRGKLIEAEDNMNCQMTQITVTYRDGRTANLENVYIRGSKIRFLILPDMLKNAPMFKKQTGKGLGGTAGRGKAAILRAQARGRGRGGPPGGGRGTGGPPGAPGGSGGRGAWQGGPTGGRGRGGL

[9] = molecular target: CG5525 (Drosophila melanogaster) (UniProt Q9VK69)

Substance: CG9344 (from UniProt Q9W2P5)
binding [1]: binds | binding [2]: binds

Substance: CG2021 (from UniProt Q9W087)
binding [3]: binds

Substance: RfC4 (from UniProt P53034 1-331)
binding [5]: binds | binding [6]: binds

Substance: CG10418 (from UniProt Q9VTW6)
binding [3]: no binding | binding [2]: binds | binding [8]: no binding

Now from value to substance:

binding [4]: binds
Substance: CG12703 (Drosophila melanogaster)

binding [1]: binds | binding [3]: binds | binding [7]: binds | binding [2]: binds | binding [8]: binds
Substance: LSm7 (from UniProt Q9VJI7)

binding [9]: binds
Substance: CG5325 (from UniProt Q8IP97)
